Measurements reported in article PMC11780389.
These are yes or no findings as the source states them, for the method shown. Binding seen in cells or lysates may run through a third protein. A yes stands for co-enrichment or nearness to the bait. Other partners may have been found. Blank lines part the entries; values can stand above or below the substance they belong to.

By UniProt entry, the sequences of proteins in these tests, tags left out. Residues count along the entry.
UniProt P16390: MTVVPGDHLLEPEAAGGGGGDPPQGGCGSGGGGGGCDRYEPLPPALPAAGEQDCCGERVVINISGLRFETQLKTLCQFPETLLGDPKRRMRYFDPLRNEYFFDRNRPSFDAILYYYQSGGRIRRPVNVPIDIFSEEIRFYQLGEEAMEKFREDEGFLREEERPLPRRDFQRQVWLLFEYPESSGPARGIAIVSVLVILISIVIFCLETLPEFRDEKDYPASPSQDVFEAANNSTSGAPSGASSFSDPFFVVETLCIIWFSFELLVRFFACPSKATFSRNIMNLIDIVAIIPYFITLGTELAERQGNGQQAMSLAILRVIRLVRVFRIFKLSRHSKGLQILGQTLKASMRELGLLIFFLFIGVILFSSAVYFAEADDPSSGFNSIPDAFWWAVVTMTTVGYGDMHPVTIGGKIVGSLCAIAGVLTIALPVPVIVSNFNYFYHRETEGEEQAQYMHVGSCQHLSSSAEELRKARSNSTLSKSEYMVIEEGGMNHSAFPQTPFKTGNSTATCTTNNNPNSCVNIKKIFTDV
UniProt P41233: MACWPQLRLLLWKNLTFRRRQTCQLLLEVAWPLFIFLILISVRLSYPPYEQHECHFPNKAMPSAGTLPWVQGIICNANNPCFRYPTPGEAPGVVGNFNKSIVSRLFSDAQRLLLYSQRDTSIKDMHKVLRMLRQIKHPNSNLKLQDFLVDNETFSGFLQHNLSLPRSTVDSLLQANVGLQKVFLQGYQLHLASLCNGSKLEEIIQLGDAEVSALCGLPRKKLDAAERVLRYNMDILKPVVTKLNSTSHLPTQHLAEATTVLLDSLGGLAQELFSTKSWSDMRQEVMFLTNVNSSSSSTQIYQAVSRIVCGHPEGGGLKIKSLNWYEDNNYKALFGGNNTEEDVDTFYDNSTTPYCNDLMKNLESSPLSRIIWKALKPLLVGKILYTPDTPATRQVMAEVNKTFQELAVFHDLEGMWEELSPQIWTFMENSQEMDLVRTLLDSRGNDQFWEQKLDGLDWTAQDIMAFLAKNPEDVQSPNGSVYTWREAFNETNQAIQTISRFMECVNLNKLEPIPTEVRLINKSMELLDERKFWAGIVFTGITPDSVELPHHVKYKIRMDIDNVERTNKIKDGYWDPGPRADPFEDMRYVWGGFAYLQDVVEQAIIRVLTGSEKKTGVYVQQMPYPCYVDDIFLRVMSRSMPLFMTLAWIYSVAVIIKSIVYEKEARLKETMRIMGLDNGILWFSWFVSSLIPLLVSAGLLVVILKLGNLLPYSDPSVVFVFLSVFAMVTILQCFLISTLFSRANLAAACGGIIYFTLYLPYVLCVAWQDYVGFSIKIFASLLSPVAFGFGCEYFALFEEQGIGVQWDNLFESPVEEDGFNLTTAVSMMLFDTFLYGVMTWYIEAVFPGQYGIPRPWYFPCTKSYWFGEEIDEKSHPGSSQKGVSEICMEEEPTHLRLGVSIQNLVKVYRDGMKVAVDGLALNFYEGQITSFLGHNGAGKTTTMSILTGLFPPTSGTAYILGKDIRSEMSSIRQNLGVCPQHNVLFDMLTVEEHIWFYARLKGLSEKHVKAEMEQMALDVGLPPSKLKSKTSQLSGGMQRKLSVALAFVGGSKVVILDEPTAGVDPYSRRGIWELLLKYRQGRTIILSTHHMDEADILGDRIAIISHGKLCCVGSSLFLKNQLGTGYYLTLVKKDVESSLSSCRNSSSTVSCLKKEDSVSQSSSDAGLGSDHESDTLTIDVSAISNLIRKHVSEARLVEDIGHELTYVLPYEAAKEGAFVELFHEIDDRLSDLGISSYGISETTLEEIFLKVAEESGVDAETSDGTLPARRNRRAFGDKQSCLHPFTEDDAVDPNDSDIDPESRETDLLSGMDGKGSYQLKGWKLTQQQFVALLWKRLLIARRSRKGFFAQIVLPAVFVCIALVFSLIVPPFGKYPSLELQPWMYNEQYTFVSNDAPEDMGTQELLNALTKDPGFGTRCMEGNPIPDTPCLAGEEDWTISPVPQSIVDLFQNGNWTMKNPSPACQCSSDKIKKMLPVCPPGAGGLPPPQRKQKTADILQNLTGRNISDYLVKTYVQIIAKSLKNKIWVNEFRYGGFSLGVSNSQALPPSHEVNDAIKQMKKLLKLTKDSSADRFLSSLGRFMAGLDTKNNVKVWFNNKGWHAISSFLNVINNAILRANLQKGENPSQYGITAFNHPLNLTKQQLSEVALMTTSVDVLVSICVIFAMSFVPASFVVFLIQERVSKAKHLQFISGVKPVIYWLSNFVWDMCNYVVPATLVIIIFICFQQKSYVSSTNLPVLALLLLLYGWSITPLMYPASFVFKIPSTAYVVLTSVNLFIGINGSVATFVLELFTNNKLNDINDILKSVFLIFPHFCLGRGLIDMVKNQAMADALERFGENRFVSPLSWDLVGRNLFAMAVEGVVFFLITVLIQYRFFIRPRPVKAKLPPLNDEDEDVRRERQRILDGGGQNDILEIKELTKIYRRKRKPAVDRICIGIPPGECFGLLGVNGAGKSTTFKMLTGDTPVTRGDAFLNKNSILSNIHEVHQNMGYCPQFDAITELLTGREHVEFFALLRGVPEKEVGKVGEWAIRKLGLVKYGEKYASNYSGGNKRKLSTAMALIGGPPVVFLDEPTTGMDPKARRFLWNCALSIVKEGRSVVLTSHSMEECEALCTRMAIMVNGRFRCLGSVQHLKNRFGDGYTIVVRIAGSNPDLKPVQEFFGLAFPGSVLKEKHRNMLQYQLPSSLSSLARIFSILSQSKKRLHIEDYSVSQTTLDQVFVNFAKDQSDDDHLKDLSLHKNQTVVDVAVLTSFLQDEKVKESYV
UniProt P11021, residues 19-654: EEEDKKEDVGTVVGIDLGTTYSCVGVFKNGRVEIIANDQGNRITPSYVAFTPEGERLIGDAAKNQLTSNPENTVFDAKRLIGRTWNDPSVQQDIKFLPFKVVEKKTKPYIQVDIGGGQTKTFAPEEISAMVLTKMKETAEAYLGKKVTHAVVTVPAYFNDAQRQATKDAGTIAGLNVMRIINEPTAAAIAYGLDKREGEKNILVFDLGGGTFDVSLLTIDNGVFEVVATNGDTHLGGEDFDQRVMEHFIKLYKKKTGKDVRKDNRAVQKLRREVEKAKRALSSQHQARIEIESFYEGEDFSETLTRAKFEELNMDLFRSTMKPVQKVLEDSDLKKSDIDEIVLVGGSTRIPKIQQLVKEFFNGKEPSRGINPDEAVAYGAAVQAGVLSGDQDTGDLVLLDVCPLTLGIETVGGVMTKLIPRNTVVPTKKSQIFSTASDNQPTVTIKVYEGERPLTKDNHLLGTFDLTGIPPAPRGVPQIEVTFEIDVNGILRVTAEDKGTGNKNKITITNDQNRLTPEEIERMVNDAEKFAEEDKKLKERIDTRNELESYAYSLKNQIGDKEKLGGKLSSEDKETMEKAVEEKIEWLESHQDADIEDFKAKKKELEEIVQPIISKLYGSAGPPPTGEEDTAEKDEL
UniProt P09055, residues 21-798: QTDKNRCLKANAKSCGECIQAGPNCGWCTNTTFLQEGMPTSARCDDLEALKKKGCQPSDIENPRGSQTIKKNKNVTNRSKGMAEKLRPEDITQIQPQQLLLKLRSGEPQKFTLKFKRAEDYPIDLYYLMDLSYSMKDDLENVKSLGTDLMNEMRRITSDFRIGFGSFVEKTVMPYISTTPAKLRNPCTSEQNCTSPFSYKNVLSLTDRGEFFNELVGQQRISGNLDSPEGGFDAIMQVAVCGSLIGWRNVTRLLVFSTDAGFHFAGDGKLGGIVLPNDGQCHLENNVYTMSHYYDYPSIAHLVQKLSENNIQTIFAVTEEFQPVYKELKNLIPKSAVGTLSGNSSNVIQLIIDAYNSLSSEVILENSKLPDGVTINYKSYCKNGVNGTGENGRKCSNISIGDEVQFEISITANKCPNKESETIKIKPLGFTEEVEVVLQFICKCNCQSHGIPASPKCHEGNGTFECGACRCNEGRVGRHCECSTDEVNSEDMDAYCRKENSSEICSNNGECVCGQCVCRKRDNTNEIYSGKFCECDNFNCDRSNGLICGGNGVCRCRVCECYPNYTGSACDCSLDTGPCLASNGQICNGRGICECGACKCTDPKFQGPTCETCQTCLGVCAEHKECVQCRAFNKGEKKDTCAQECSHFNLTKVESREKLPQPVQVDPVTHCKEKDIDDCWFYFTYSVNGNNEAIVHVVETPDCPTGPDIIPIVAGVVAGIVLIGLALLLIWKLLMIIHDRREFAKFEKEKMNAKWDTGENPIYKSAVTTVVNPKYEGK
UniProt O35604, residues 23-1277: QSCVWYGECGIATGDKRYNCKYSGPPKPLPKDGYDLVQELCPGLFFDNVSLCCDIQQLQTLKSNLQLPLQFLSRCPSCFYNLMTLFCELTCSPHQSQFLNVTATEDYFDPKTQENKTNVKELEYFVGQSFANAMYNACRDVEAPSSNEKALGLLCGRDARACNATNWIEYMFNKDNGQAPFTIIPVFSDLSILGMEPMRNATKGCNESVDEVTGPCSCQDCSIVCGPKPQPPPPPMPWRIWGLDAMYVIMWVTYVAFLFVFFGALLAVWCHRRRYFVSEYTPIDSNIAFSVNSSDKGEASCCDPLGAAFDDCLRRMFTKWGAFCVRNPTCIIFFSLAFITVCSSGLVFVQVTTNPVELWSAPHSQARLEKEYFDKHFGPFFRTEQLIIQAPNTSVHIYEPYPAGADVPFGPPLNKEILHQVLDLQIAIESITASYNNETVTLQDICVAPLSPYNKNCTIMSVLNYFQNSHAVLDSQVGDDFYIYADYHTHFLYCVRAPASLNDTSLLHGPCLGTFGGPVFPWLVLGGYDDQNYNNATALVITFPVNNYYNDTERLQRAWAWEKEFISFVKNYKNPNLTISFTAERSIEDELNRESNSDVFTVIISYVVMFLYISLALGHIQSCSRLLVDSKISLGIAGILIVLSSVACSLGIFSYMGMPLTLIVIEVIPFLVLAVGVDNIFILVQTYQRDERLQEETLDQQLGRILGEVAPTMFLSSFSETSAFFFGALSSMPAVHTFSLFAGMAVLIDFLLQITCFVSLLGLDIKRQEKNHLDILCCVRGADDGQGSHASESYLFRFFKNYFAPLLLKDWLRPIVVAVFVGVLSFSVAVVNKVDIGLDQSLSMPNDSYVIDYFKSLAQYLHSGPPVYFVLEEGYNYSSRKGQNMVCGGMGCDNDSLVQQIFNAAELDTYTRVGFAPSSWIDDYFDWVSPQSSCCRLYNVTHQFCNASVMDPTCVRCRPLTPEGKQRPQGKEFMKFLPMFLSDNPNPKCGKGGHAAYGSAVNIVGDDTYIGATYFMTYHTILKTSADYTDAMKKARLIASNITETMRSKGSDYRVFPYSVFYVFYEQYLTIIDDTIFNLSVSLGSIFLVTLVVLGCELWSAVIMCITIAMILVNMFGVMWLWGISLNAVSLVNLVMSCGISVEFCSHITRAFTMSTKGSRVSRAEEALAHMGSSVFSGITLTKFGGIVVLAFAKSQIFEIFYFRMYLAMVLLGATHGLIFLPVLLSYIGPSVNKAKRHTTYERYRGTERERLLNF
UniProt O35685: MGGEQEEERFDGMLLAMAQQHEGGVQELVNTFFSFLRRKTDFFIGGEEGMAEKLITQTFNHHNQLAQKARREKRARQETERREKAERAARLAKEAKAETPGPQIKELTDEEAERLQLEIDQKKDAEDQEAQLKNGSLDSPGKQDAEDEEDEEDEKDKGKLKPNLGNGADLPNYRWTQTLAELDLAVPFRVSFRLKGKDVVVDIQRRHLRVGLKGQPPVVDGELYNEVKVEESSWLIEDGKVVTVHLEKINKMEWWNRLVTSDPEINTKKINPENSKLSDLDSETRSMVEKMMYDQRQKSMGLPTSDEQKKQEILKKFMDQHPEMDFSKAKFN
UniProt P61620: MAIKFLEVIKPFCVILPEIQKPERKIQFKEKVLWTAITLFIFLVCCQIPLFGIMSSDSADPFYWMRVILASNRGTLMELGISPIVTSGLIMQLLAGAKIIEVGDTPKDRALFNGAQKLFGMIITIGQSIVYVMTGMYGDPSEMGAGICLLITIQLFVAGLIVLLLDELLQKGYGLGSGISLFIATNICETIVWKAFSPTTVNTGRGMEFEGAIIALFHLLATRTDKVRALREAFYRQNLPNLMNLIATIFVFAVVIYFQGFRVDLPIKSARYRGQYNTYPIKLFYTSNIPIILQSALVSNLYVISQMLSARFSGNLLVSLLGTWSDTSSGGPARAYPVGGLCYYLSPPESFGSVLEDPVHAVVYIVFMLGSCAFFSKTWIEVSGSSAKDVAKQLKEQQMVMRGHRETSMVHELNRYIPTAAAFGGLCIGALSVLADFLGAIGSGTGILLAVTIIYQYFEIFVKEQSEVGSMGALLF
UniProt P31996, residues 21-326: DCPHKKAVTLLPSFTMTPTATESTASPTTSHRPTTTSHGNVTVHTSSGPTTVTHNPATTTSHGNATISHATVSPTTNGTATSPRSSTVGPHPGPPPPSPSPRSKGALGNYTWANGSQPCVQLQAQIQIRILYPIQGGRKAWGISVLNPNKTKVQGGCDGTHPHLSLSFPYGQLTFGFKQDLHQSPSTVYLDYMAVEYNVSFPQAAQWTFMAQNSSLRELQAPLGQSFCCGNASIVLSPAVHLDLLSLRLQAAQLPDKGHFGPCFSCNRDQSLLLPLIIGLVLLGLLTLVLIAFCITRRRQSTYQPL

Legend:
[1] = target: Kv1.3-TurboID fusion in BV-2 microglia (N-terminal or C-terminal fusion; the sentence does not tell which) (UniProt P16390); assay: proximity labelling; TurboID fused to Kv1.3 (N-term, C-term, C-term ΔPDZ), stably transduced BV-2 cells; LPS 100 ng/ml or PBS for 24 h, 200 uM biotin for the last 1 h; lysis in 8 M urea; streptavidin magnetic beads; label-free MS, normalised to TurboID; compared with untransduced cells, global TurboID, N- against C-terminal fusion, LPS against PBS, C-term against C-term ΔPDZ; n = 3
[2] = target: Kv1.3 C-term Fusion (TurboID on the C terminus of Kv1.3), in HEK-293 cells (UniProt P16390); assay: proximity labelling; TurboID fused to the N or C terminus of Kv1.3, transfected into HEK-293 cells for 24 h, 200 uM biotin for 24 h; lysis in 8 M urea; biotinylated proteins enriched on streptavidin magnetic beads; label-free MS, normalised to TurboID; compared with non-TurboID control and N- against C-terminal fusion; n = 3
[3] = target: Kv1.3 N-term Fusion (TurboID on the N terminus of Kv1.3), in HEK-293 cells (UniProt P16390); assay: as above
[4] = target: Kv1.3-TurboID fusion in HEK-293 cells (N-terminal or C-terminal fusion; the sentence does not tell which) (UniProt P16390); assay: as above
[5] = target: Kv1.3 C-term Fusion (TurboID on the C terminus of Kv1.3), in BV-2 microglia (UniProt P16390); assay: proximity labelling; TurboID fused to Kv1.3 (N-term, C-term, C-term ΔPDZ), stably transduced BV-2 cells; LPS 100 ng/ml or PBS for 24 h, 200 uM biotin for the last 1 h; lysis in 8 M urea; streptavidin magnetic beads; label-free MS, normalised to TurboID; compared with untransduced cells, global TurboID, N- against C-terminal fusion, LPS against PBS, C-term against C-term ΔPDZ; n = 3
[6] = target: Kv1.3 N-term Fusion (TurboID on the N terminus of Kv1.3), in BV-2 microglia (UniProt P16390); assay: as above
[7] = target: Kv1.3 C-term Fusion (TurboID on the C terminus of Kv1.3), in BV-2 microglia (UniProt P16390); assay: proximity labelling; adapted Luminex assay on total lysates of BV-2 Kv1.3-TurboID lines without enrichment: analyte caught on antibody beads, the biotinylated detection antibody left out, biotin put on by TurboID read with streptavidin-phycoerythrin; with or without LPS

binding [1]: binds
Substance: ABCA1 (from UniProt P41233 1-2261)

binding [2]: binds
Substance: CNOT1 (from UniProt A5YKK6 1-2376)

binding [3]: binds
Substance: EPHX2 (from UniProt P34913 1-555)

binding [1]: binds
Substance: HSPA5 (BV-2) (from UniProt P20029 20-655)

binding [4]: binds
Substance: HSPA5 (HEK-293) (from UniProt P11021 19-654)

binding [5]: binds
Substance: HSPA9 (from UniProt P38647 47-679)

binding [1]: binds
Substance: ITGB1 (from UniProt P09055 21-798)

binding [1]: binds
Substance: MRPS30 (from UniProt Q9D0G0 1-442)

binding [5]: binds
Substance: MYO6 (from UniProt Q64331 1-1262)

binding [5]: binds
Substance: ND3 (from UniProt P03899 1-115)

binding [1]: binds
Substance: NPC1 (from UniProt O35604 23-1277)

binding [5]: binds
Substance: NSF (from UniProt P46460 1-744)

binding [6]: binds
Substance: NUDC (from UniProt O35685 1-332)

binding [1]: binds
Substance: SEC61A1 (from UniProt P61620 1-476)

binding [1]: binds
Substance: SEC61B (from UniProt Q9CQS8 1-96)

binding [2]: binds
Substance: SMAD3 (from UniProt P84022 1-425)

binding [1]: binds
Substance: SORL1 (from UniProt O88307 82-2215)

binding [3]: binds
Substance: SRRM2 (from UniProt Q9UQ35 1-2752)

binding [6]: binds
Substance: TIMM50, a mitochondrial translocase protein (from UniProt Q9D880 22-353)

binding [5]: binds | binding [7]: binds
Substance: complement C3 (from UniProt P01027 25-1663)

binding [1]: binds
Substance: lysosomal protein CD68 (from UniProt P31996 21-326)
